Measurements from US20210147508A1.
No constants are given. Whether binding was seen depends on the method and setting. Some entries that bind do so weakly or less than the wild type. Tags and fused reporters may be left off the sequences shown.

Protein sequences, listed by entry. Tags and fused reporters are not part of them. Residues count along the entry.
UniProt P22003, residues 317-454: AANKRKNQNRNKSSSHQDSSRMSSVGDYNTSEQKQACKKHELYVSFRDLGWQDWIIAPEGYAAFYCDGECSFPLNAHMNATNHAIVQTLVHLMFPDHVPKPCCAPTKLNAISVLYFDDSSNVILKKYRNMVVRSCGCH
UniProt P22004, residues 382-513: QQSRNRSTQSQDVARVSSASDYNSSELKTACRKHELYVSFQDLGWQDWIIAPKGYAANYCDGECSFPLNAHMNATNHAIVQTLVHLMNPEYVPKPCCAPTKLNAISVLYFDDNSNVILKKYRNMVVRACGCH
UniProt O95390, residues 299-407: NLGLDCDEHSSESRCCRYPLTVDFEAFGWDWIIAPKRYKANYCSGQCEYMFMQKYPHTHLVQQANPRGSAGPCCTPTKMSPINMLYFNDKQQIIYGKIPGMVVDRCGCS
UniProt O14793, residues 267-375: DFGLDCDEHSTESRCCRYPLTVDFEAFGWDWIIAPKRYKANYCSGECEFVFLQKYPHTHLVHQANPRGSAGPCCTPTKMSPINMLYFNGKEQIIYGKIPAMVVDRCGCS

Tests used:
[1] = target: T1, Activin B (UniProt P09529); experiment: SPR (Biacore)
T1 sequence (looked up): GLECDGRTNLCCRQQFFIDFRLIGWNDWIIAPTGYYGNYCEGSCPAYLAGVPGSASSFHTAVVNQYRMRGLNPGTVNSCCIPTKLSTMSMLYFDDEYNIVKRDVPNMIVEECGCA

[2] = target: T2, BMP10 (UniProt O95393); experiment: SPR (Biacore)
T2 sequence (looked up): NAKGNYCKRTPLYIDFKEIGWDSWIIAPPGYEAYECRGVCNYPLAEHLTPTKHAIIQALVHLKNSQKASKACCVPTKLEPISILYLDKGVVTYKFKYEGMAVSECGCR

[3] = target: BMP5 (UniProt P22003); experiment: SPR (Biacore)
[4] = target: BMP6 (UniProt P22004); experiment: SPR (Biacore)
[5] = target: T3, BMP9 (UniProt Q9UK05); experiment: SPR (Biacore)
T3 sequence (looked up): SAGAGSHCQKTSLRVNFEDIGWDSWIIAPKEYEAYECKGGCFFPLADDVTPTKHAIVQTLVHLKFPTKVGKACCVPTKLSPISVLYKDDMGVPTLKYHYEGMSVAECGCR

[6] = target: GDF11 (UniProt O95390); experiment: SPR (Biacore)
[7] = target: T4, GDF3 (UniProt Q9NR23); experiment: SPR (Biacore)
T4 sequence (looked up): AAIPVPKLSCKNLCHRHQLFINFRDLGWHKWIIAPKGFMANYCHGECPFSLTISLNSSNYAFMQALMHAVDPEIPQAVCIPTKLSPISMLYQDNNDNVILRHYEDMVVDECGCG

[8] = target: GDF8 (UniProt O14793); experiment: SPR (Biacore)
[9] = target: T1, Activin B; experiment: SPR (Biacore), figure legend
[10] = target: T2, BMP10; experiment: SPR (Biacore), figure legend
[11] = target: BMP5 (UniProt P22003); experiment: SPR (Biacore), figure legend
[12] = target: BMP6 (UniProt P22004); experiment: SPR (Biacore), figure legend
[13] = target: T3, BMP9; experiment: SPR (Biacore), figure legend
[14] = target: GDF11 (UniProt O95390); experiment: SPR (Biacore), figure legend
[15] = target: T4, GDF3; experiment: SPR (Biacore), figure legend
[16] = target: GDF8 (UniProt O14793); experiment: SPR (Biacore), figure legend
[17] = target: T5, GDF5 (UniProt P43026); experiment: SPR (Biacore), anti-Fc capture
T5 sequence (looked up): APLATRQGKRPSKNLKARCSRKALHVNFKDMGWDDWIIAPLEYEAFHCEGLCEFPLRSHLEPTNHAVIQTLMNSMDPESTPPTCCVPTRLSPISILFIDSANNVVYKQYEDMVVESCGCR

[18] = target: T6, GDF7 (UniProt Q7Z4P5); experiment: SPR (Biacore), anti-Fc capture
T6 sequence (looked up): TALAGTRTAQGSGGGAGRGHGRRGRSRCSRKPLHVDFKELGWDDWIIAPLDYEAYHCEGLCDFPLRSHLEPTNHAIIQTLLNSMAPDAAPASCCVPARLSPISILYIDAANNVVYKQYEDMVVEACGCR

[19] = target: BMP6 (UniProt P22004); experiment: SPR (Biacore), anti-Fc capture
[20] = target: T7, GDF6 (UniProt Q6KF10); experiment: SPR (Biacore), anti-Fc capture
T7 sequence (looked up): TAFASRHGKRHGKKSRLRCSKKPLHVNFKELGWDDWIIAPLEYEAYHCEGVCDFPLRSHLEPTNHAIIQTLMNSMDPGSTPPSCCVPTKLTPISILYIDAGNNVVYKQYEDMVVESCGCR

Measured: binding

B1: ActRIIB-Fc homodimer (Fc fusion, human, UniProt Q13705 19-137, looked up, not shown: a dimerising Fc or GST)
chain: SGRGEAETRECIYYNANWELERTNQSGLERCEGEQDKRLHCYASWRNSSGTIELVKKGCWLDDFNCYDRQECVATEENPQVYFCCCEGNFCNERFTHLPEAGGPEVTYEPPPTAPTLLT
not listed: [19] | [20]
binds: all other assays above

B2: BMPRII-Fc homodimer (Fc fusion, human, UniProt Q13873 27-150, looked up, not shown: a dimerising Fc or GST)
chain: SQNQERLCAFKDPYQQDLGIGESRISHENGTILCSKGSTCYGLWEKSKGDINLVKQGCWSHIGDPQECHYEECVVTTTPPSIQNGTYRFCCCSTDLCNVNFTENFPPPDTTPLSPPHSFNRDET
binds: [19] | [20]
